These results are taken from PMC3798268, “A Minimal Nitrogen Fixation Gene Cluster from Paenibacillus sp. WLY78 Enables Expression of Active Nitrogenase in Escherichia coli”.

The exact form of at least one protein or probe is not confirmed. For some of these results: A negative result means that nothing was seen under these conditions. For some of these results: At least one verdict rests on a figure or table, not on a statement of the authors.

In series [1] the test system is E. coli sigma70-RNAP holoenzyme (Escherichia coli). Description: DNase I footprinting. Conditions: 10 pmol RNAP, 400 ng DNA, -35 and -10 regions protected, BSA control; footprinting: binding 30 min at 25 C, DNase I 40 s at 37 C; commercial protein; label: 5'-FAM on pfoot-up strand; probe letters rebuilt from the primers and the genome.
Series [2] has as its system sigma70 (sigmaA, RpoD) (Paenibacillus sp. WLY78). Description: EMSA. The note with it: EMSA: Roche DIG Gel Shift Kit, 0.03 pmol labeled DNA, buffer not stated, recombinant protein. For orientation: In EMSA bound probe runs differently from free probe, usually more slowly.
Series [3] shares this test system. Description: competition with a labelled probe. Conditions: 2.4 pmol protein, unlabeled N1 as competitor; EMSA: Roche DIG Gel Shift Kit, 0.03 pmol labeled DNA, buffer not stated; recombinant protein; label: digoxigenin (DIG Gel Shift Kit).

Regarding “AGGAGAGCCGTATTTACGGACTCTCTTTTTTTACGTCTTGATGTTATTGAGAATATGAAATGTAACCGCGCACATGTAAAGTGTACGATATATTACTTGACGTAAAATTTGACACATATGTGAATTGAGGATAAATGTCAGGGATTTCATGGAGAAGTGAATTGACTGTATTTGTCCCTGTCTCTAAGATGTAATTATATTCCAGACAAAAACAGAGATTTATGTAAGGGAATATAACGTAGAGAGGAGGGAATGAATGGACTCTTTAGCTGATCTCTCGGAAACCCCCTTAGCATTAGAAACTCTCAGACGACATCCCTGTTATAACGAAGAGGCACATCGCTATTTTGCGCGCATTCATCTTCCAGTAGC (double strand) [nifB promoter footprinting fragment]”, in series [1], the binding result is given as “binds”.

On to “GGAGAAGTGAATTGACTGTATTTGTCCCTGTCTCTAAGATGTAATTATAT (double strand) [nifB promoter 50 bp (-47 to +3)]”, for which the binding result in series [2] (without core RNAP, label: digoxigenin (DIG Gel Shift Kit)) was “binds”; in series [3], “binds”.

As for “GTACGGAGTATCCAGCTCCGTAGCATGCAAATCCTCTGG (double strand) [scrambled 39 bp DNA]”, the binding result in series [2] is given as “no binding”.
